# Reference: paper doi:10.1101/2020.09.25.312678
# Chains of the proteins cited; added tags and fusions are not shown.
# UniProt O15169, whole entry: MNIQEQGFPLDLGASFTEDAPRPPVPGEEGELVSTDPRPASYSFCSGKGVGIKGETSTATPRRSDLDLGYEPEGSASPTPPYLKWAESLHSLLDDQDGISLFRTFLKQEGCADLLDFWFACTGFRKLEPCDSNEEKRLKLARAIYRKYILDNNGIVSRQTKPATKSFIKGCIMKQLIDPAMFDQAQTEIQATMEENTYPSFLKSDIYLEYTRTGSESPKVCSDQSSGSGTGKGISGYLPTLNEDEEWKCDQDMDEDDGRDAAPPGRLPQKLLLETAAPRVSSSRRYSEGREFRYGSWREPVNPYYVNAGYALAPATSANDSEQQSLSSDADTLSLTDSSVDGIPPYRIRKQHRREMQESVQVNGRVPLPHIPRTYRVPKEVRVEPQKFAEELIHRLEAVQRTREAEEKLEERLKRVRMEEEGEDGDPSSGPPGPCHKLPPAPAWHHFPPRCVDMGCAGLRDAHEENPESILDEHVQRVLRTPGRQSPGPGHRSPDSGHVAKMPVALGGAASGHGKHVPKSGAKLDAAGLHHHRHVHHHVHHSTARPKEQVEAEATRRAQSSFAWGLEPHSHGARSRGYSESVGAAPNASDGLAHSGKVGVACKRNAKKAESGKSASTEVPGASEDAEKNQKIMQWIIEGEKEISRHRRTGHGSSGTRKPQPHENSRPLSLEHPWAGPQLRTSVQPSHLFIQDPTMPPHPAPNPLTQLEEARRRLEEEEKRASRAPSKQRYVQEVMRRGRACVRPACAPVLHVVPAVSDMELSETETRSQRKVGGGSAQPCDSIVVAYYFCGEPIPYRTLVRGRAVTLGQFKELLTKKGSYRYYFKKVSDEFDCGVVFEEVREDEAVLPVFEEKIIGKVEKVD
# UniProt P67775, whole entry: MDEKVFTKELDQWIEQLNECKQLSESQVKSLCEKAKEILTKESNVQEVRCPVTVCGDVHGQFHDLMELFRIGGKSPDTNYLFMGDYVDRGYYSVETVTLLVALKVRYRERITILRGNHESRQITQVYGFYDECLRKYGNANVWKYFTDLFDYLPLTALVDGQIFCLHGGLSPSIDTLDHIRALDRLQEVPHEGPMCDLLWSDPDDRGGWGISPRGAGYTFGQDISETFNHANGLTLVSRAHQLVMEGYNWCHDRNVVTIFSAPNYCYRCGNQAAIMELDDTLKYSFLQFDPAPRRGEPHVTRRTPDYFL
# UniProt P49841, whole entry: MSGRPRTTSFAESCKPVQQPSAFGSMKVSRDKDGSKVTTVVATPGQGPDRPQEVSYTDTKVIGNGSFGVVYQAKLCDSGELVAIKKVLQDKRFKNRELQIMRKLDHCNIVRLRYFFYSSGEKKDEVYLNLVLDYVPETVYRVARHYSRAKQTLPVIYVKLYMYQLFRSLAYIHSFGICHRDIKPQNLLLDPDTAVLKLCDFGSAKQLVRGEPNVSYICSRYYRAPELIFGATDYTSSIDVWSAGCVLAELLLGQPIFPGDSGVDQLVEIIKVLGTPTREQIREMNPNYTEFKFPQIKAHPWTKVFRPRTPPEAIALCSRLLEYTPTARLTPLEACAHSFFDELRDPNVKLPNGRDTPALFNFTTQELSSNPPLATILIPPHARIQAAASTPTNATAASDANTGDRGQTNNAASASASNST
# UniProt Q9Y297, whole entry: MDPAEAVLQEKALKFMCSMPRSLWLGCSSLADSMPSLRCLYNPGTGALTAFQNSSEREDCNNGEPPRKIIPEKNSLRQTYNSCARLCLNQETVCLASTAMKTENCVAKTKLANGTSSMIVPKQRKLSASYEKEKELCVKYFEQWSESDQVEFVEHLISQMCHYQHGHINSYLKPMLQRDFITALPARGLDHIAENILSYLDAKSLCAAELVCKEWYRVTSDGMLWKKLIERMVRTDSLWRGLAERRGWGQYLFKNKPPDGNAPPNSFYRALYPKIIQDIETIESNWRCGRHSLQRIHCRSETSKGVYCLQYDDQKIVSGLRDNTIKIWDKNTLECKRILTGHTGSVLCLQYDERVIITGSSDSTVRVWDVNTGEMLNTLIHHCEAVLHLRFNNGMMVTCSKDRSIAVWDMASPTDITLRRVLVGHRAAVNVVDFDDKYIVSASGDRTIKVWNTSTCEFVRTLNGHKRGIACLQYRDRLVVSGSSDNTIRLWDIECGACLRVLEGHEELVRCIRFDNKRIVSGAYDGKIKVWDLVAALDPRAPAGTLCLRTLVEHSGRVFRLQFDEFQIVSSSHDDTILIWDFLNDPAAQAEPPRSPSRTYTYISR
# UniProt P35222, whole entry: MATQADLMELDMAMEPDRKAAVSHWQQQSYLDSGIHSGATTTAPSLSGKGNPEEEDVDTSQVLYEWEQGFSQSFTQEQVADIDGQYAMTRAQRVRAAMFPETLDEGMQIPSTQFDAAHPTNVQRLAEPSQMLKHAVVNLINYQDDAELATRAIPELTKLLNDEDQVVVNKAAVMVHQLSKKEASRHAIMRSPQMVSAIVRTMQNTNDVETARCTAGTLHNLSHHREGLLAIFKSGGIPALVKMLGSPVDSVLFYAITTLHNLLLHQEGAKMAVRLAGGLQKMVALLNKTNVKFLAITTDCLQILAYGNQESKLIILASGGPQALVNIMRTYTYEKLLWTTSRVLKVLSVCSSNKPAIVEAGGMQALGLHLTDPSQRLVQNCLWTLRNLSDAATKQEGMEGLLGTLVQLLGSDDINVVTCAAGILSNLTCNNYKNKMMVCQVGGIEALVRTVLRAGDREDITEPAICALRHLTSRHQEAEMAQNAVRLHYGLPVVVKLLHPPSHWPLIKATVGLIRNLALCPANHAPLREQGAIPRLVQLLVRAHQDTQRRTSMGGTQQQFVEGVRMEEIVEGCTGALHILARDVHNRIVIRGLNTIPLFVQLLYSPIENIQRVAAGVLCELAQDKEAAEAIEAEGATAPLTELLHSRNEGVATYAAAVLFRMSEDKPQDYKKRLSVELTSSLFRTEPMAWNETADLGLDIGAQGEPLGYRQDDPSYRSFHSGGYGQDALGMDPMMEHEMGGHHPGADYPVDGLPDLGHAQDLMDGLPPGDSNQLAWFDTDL
# These are yes or no findings as the source states them, for the method shown. Binding seen in cells or lysates may run through a third protein. Some entries that bind do so weakly or less than the wild type. For some of these results: Tags and fused reporters may be left off the sequences shown.
# Tests used:
# [1] = biological target: AXIN1, wild type, HA-tagged (UniProt O15169); experiment: co-IP
# [2] = biological target: T1, GST-WSB1 (recombinant GST-tagged WSB1) (UniProt Q9Y6I7); experiment: pull-down
# T1 sequence: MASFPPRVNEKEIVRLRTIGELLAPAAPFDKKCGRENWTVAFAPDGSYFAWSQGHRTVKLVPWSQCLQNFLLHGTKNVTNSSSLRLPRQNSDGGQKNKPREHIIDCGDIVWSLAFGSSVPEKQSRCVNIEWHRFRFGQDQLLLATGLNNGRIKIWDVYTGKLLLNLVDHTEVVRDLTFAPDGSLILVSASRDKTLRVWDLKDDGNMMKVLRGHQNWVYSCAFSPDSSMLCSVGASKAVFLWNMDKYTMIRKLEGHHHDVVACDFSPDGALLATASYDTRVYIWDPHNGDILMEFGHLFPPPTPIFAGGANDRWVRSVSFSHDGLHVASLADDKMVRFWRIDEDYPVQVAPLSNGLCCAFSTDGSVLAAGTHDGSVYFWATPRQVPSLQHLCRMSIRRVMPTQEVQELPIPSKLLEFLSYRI
# [3] = biological target: T2, WD repeat and SOCS box containing 1 (WSB1), wild type, FLAG-tagged (UniProt Q9Y6I7); experiment: co-IP
# T2 sequence: T1 sequence
binding [1],binding [2],binding [3],Substance
binds,,,"PPP2CA, endogenous (from UniProt P67775 1-309) (enzyme)"
,no binding,,"glycogen synthase kinase 3β (GSK3β), HA-tagged (from UniProt P49841 1-420) (enzyme)"
binds,,,"PPP2CA (catalytic subunit of serine/threonine protein phosphatase 2A), FLAG-tagged (from UniProt P67775 1-309) (enzyme)"
,binds,binds,"AXIN1, wild type, HA-tagged (from UniProt O15169 1-862)"
,,binds,"AXIN1, endogenous (from UniProt O15169 1-862)"
,,binds,"E3 ubiquitin ligase adaptor β-TRCP, HA-tagged (from UniProt Q9Y297 1-605)"
binds,,binds,"β-TRCP, endogenous (from UniProt Q9Y297 1-605)"
binds,,,"β-catenin, endogenous (from UniProt P35222 1-781)"
